Assay results as given in paper PMC7966362.
No constants are given. Whether binding was seen depends on the method and setting. In cells and extracts the contact can be indirect. Tags and fused reporters may be left off the sequences shown.

Biological target: FLAG-tagged L-IRBIT wild type (full length)
Experiment: co-IP; HEK 293T cells transfected with tagged constructs; lysis buffer 10 mM HEPES pH 7.4, 100 mM NaCl, 2 mM EDTA, 0.1% Triton X-100, 10 mM sodium fluoride; antibodies and Protein G overnight at 4 °C; immunoblot

Binder	binding
GFP-tagged AE2 lacking aa 76–524 (protein, UniProt P13808) MSSAPRRPASGADSLHTPEPESLSPGTPGFPEQEEDELRTLGVERFEEILQEAGSRGGEEPGRSYGEEDFEYHRQRPTMAFVRLREAVELDAVLEVPVPVRFLFLLLGPSSANMDYHEIGRSISTLMSDKQFHEAAYLADERDDLLTAINAFLDCSVVLPPSEVQGEELLRSVAHFQRQMLKKREEQGRLLPPGAGLEPKSAQDKALLQMVEVAGAAEDDPLRRTGRPFGGLIRDVRRRYPHYLSDFRDALDPQCLAAVIFIYFAALSPAITFGGLLGEKTKDLIGVSELIMSTALQGVVFCLLGAQPLLVIGFSGPLLVFEEAFFSFCSSNELEYLVGRVWIGFWLVFLALLMVALEGSFLVRFVSRFTQEIFAFLISLIFIYETFYKLIKIFQEHPLHGCSGSNDSEAGSSSSSNMTWATTILVPDNSSASGQSGQEKPRGQPNTALLSLVLMAGTFFIAFFLRKFKNSRFFPGRIRRVIGDFGVPIAILIMVLVDYSIEDTYTQKLSVPSGFSVTAPDKRGWVINPLGEKTPFPVWMMVASLLPAVLVFILIFMETQITTLIISKKERMLQKGSGFHLDLLLIVAMGGICALFGLPWLAAATVRSVTHANALTVMSKAVAPGDKPKIQEVKEQRVTGLLVALLVGLSMVIGDLLRQIPLAVLFGIFLYMGVTSLNGIQFYERLHLLLMPPKHHPDVTYVKKVRTMRMHLFTALQLLCLALLWAVMSTAASLAFPFILILTVPLRMVVLTRIFTEREMKCLDANEAEPVFDECEGVDEYNEMPMPV	no binding
GFP-tagged AE2 lacking aa 76–347 (protein, UniProt P13808) MSSAPRRPASGADSLHTPEPESLSPGTPGFPEQEEDELRTLGVERFEEILQEAGSRGGEEPGRSYGEEDFEYHRQDVEEETERWGKPHVASLSFRSLLELRRTLAHGAVLLDLDQQTLPGVAHQVVEQMVISDQIKAEDRANVLRALLLKHSHPSDEKEFSFPRNISAGSLGSLLGHHHAQGTESDPHVTEPLIGGVPETRLEVDRERELPPPAPPAGITRSKSKHELKLLEKIPENAEATVVLVGCVEFLSRPTMAFVRLREAVELDAVLEVPVPVRFLFLLLGPSSANMDYHEIGRSISTLMSDKQFHEAAYLADERDDLLTAINAFLDCSVVLPPSEVQGEELLRSVAHFQRQMLKKREEQGRLLPPGAGLEPKSAQDKALLQMVEVAGAAEDDPLRRTGRPFGGLIRDVRRRYPHYLSDFRDALDPQCLAAVIFIYFAALSPAITFGGLLGEKTKDLIGVSELIMSTALQGVVFCLLGAQPLLVIGFSGPLLVFEEAFFSFCSSNELEYLVGRVWIGFWLVFLALLMVALEGSFLVRFVSRFTQEIFAFLISLIFIYETFYKLIKIFQEHPLHGCSGSNDSEAGSSSSSNMTWATTILVPDNSSASGQSGQEKPRGQPNTALLSLVLMAGTFFIAFFLRKFKNSRFFPGRIRRVIGDFGVPIAILIMVLVDYSIEDTYTQKLSVPSGFSVTAPDKRGWVINPLGEKTPFPVWMMVASLLPAVLVFILIFMETQITTLIISKKERMLQKGSGFHLDLLLIVAMGGICALFGLPWLAAATVRSVTHANALTVMSKAVAPGDKPKIQEVKEQRVTGLLVALLVGLSMVIGDLLRQIPLAVLFGIFLYMGVTSLNGIQFYERLHLLLMPPKHHPDVTYVKKVRTMRMHLFTALQLLCLALLWAVMSTAASLAFPFILILTVPLRMVVLTRIFTEREMKCLDANEAEPVFDECEGVDEYNEMPMPV	no binding
